Experimental data as given in US20030124505.
The exact form of at least one protein or probe is not confirmed.

By UniProt entry, the sequences of proteins in these tests, tags left out. Residues count along the entry.
UniProt P0A7G6, 2-353: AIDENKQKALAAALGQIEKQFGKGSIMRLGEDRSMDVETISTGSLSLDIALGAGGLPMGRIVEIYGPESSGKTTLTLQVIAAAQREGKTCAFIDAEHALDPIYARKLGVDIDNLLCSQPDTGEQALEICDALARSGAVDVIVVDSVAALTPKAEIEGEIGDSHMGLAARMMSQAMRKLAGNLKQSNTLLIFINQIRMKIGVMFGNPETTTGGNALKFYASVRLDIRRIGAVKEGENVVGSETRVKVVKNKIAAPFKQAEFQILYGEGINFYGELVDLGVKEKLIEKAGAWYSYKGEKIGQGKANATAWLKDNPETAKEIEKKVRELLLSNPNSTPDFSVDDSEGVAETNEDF

Target: RecA recombinase (UniProt P0A7G6)
Assay: binding assay
Settings: RecA-mediated capture of mouse Rad51A cDNA, 10% heterology; purified recombinant protein; label: biotin; single-stranded DNA

ATTGACACTGAGGGTACCTTTAGGCCAGAACGGCTGCTGGCAGTGGCTGAGAGGTATGGTCTCTCTGGCAGTGATGTCCTGGATAATGTAGCATATGCTCGAGCGTTCAACACAGACCACCAGACCCAGCTCCTTTATCAAGCATCAGCCATGATGGTAGAATCTAGGTATGCACTGCTTATTGTAGACAGTGCCACCGCCCTTTACAGAACAGACTACTCGGGTCGAGGTGAGCTTTCAGCCAGGCAGATGCACTTGGCCAGGTTTCTGCGGATGCTTCTGCGACTCGCTGATGAGTTTGGTGTAGCAGTGGTAATCACTAATCAGGTG [329 bp biotinylated human Rad51A cssDNA probe]
binding result: binds
